Assay results as given in patent US20150192564A1, “PROFILING REACTIVE OXYGEN, NITROGEN AND HALOGEN SPECIES” (ENZO LIFE SCIENCES, INC., C/O ENZO BIOCHEM, INC, priority 2008, published 2015).
For at least one compound, name, drawing or mass did not settle the structure.

Test system: HeLa cells
Assay: Profiling of ROS induced in HeLa cells by different ROS inducers, DCFDA/HE staining, wide-field fluorescence microscopy (Example 2)
Type: cell-based, Human
Protocol: For purposes of simplifying the assay description, this example was carried out with only two indicator probes, though analogous procedures were employed as in the case where three fluorophores were utilized. Human cervical carcinoma cell line HeLa was cultured as described in Example 1. The day before the experiment, the cells were seeded in multi-well microscope slides (Gel-Line™, Portsmouth, N.H.) at a density of 2×10^4 cells per well. […] After a brief wash with PBS, the cells were stained with 1 l-1M of DGFDA and HE in culture medium for 30 min, 37° C., washed twice with PBS, overlaid with a cover slip and observed under the fluorescent microscope, using green and orange filters described in the Table 2 (FIG. 4A). To perform specific profiling of ROS/RNS, parallel samples of HeLa cells were pretreated for 30 min with 5 mM NAG (general ROS scavenger, FIG. 4B), 5 mM Tiron (specific superoxide scavenger, FIG. 4C), 10 mM pyruvate (specific peroxide scavenger, FIG. 4D). Pretreated cells were induced as described, overlaid with a cover slip and observed under fluorescent microscope using the same set of filters.

CC(=O)C(=O)O [Pyruvate, pyruvate]
effect of pretreatment on green fluorescence in pyrogallol-treated cells (HeLa cells pretreated 30 min, 5 mM Tiron or 10 mM pyruvate, FIG. 4C, 4D): abolished green fluorescence completely | green fluorescence in TBHP- and pyocyanin-treated cells after pretreatment (HeLa cells pretreated 30 min with 10 mM pyruvate, FIG. 4D): A certain level of green fluorescence is still present
